These results are taken from publication doi:10.1101/306316.

The assay addresses T1, PMPCB, the beta subunit of the MPP (MPPβ) (human (endogenous in fibroblasts)) (UniProt O75439).
T1 sequence: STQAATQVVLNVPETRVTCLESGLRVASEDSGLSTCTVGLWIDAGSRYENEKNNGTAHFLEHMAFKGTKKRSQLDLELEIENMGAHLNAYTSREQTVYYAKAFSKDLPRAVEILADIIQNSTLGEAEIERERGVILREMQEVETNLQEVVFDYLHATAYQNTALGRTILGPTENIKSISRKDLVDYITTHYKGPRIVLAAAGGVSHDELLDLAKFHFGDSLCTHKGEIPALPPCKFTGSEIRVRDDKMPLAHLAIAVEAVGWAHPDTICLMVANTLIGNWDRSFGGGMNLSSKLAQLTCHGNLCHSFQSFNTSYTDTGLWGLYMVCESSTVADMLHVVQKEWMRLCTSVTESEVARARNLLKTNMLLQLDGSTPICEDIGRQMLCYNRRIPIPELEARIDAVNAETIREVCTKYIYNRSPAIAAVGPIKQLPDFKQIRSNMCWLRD
In words: co-IP.

These are yes or no findings as the source states them, for the method shown. Binding seen in cells or lysates may run through a third protein. Some binding calls cover weakened binding; strength is not graded here.

B1: LONP1 (enzyme, UniProt P36776 68-959)
chain: FWEASSRGGGAFSGGEDASEGGAEEGAGGAGGSAGAGEGPVITALTPMTIPDVFPHLPLIAITRNPVFPRFIKIIEVKNKKLVELLRRKVRLAQPYVGVFLKRDDSNESDVVESLDEIYHTGTFAQIHEMQDLGDKLRMIVMGHRRVHISRQLEVEPEEPEAENKHKPRRKSKRGKKEAEDELSARHPAELAMEPTPELPAEVLMVEVENVVHEDFQVTEEVKALTAEIVKTIRDIIALNPLYRESVLQMMQAGQRVVDNPIYLSDMGAALTGAESHELQDVLEETNIPKRLYKALSLLKKEFELSKLQQRLGREVEEKIKQTHRKYLLQEQLKIIKKELGLEKDDKDAIEEKFRERLKELVVPKHVMDVVDEELSKLGLLDNHSSEFNVTRNYLDWLTSIPWGKYSNENLDLARAQAVLEEDHYGMEDVKKRILEFIAVSQLRGSTQGKILCFYGPPGVGKTSIARSIARALNREYFRFSVGGMTDVAEIKGHRRTYVGAMPGKIIQCLKKTKTENPLILIDEVDKIGRGYQGDPSSALLELLDPEQNANFLDHYLDVPVDLSKVLFICTANVTDTIPEPLRDRMEMINVSGYVAQEKLAIAERYLVPQARALCGLDESKAKLSSDVLTLLIKQYCRESGVRNLQKQVEKVLRKSAYKIVSGEAESVEVTPENLQDFVGKPVFTVERMYDVTPPGVVMGLAWTAMGGSTLFVETSLRRPQDKDAKGDKDGSLEVTGQLGEVMKESARIAYTFARAFLMQHAPANDYLVTSHIHLHVPEGATPKDGPSAGCTIVTALLSLAMGRPVRQNLAMTGEVSLTGKILPVGGIKEKTIAAKRAGVTCIVLPAENKKDFYDLAAFITEGLEVHFVEHYREIFDIAFPDEQAEALAVER
As for B1, the binding result is “binds”.
